Measurements published in patent US4410459A, “Process for preparation of cytostatic compounds” (priority 1980, dated 1983).
Several values for one entry are separate records, joined by “and”; a condition that tells them apart may be missing. Equal values may be shown once. At least one read-out could not be matched to a standard name with certainty.

Test system: P 388 mouse leukaemia
Experiment: P 388 leukaemia test (life span of i.p. transplanted mice)
Assay type: in vivo, BDF hybrid mice
Conditions: for Treated/Control: mean length of life
Method: The effect of the new compounds on intraperitoneally transplantable tumors (P 388 mouse leukaemia and NK/Ly ascites lymphoma) is described hereinbelow. The P 388 leukaemia test was performed on BDF hybrid mice. The tests were carried out on groups of six mice and 10^6 tumor cells/animal were transplanted intraperitoneally. Administration of the test compounds was started in the 24th hour after transplantation. Treatment was performed intraperitoneally and the body weight and state of animals was controlled every day. The effect obtained on the treated animals is expressed in % of the mean length of life of the control group, given in days.

CCC1(O)CC2CN(CCc3c([nH]c4ccccc34)C(C(=O)OC)(c3cc4c(cc3OC)N(COC)C3C(O)(C(=O)OC)C(OC(C)=O)C5(CC)C=CCN6CCC43C65)C2)C1 (stereo not drawn) [N-Desmethyl-N-(methoxymethyl)-vinblastine]
Mean length of life, treated (8 × 2.0 mg./kg. i.p.): 18.7 days and 16.8 days | Mean length of life, treated (8 × 4.0 mg./kg. i.p.): 19.0 days and 17.7 days | Mean length of life, treated (8 × 8.0 mg./kg. i.p.): 18.7 days and 20.2 days | Treated/Control (8 × 2.0 mg./kg. i.p.): 178% and 155% | Treated/Control (8 × 4.0 mg./kg. i.p.): 163% | Treated/Control (8 × 8.0 mg./kg. i.p.): 172% and 205%
